The list shows a part of the results. Further columns of the screen follow, without active or inactive calls. Most of these compounds were active or inconclusive in the main read-out, so they are no random draw. Potencies come from curve fits of mixed quality, noted in brackets.

The nature of the test: qHTS Assay to Find Inhibitors of Chronic Active B-Cell Receptor Signaling. Particulars: ABC-DLBCL IkBa-CBG/CBR reporter, luminescence ratio (green luciferase fused to IkBa over red control in TMD8 lymphoma cells), 4 h. The gist of the method: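 Cell line TMD8 (human ABC DLBCL), stably expressing tet-inducible CBG68-IkBa fusion and CBR; IMDM/0.5% FBS; cpd up to 46 uM; dox induction, 4 h, 37C/5% CO2; dual luminescence; green/red ratio; MG132 control.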
Background: In qHTS, concentration-response curves come from the screen itself.

Setting [1] is: measured here: CBR red luminescence, cell number.
The mark [2] stands for this setting: measured here: IkBa-CBG green luminescence.

In general, AC50 refers to the midpoint of the concentration-response curve, whichever way the signal moves. As for `COC(=O)c1cc(NC(=O)C(C)c2ccc(CC(C)C)cc2)ccc1O` (stereo not given), the AC50 under setting [1] is 11.2 µM [falling, partial curve].
On the same count and under the same terms, the result for `Cc1ccsc1C(=O)OCC(=O)c1ccc[nH]1` reads 20.6 µM [falling, partial curve, poor fit]; that for `COc1ccc(-c2cc3ccc(OCc4nn[nH]n4)cc3oc2=O)cc1`, 29.1 µM [rising, partial curve, poor fit]; that for `Cc1cc(NC(=O)CS(=O)(=O)c2cn(Cc3cccc(F)c3)c3ccccc23)no1`, 29.1 µM [falling, single point].
The same measure, in the same setting: the result for `CCSC1=C(C#N)C2(CCCCC2)C2=C(CC(C)(C)CC2=O)N1` reads 5.01 µM [rising, partial curve]; that for `Cc1cc(-c2nnc3n2N=C(c2ccccc2)CS3)n[nH]1`, 20 µM [falling, partial curve, poor fit].
Regarding `N#Cc1ccccc1S(=O)(=O)N1CCN(C(=O)c2cn(-c3ccccc3)nc2-c2cccnc2)CC1`, under setting [1], the AC50 was 7.31 µM [rising, partial curve, poor fit].
For the compound `Brc1cccc(-c2cnco2)c1`, the concentration at half-maximal activity (AC50) under setting [1] is 3.55 µM [rising, partial curve, poor fit].
Consider `CC1C=CCC2C(=O)N(c3cc(Cl)ccc3O)C(=O)C12` (stereo not given), for which the concentration at half-maximal activity (AC50) under setting [1] is 12.6 µM [rising, partial curve, poor fit].
Consider `Nc1sc(-c2ccccc2)cc1C(=O)N/N=C/c1ccc(Cl)cc1`, for which the AC50 under setting [1] is 8.91 µM [rising, partial curve].
Consider `COc1ccc(NC(=O)N(C)C[C@H]2Oc3ccc(NC(=O)NC(C)C)cc3C(=O)N([C@H](C)CO)C[C@@H]2C)cc1`, for which the AC50 under setting [1] is 29.1 µM [rising, single point].
For `Cc1cc(C)c2cc(CN(Cc3nnnn3Cc3ccc(F)cc3)C3CCCC3)c(=O)[nH]c2c1`, the AC50 under setting [1] is 0.501 µM [falling, full curve, poor fit].
For the compound `Cc1cccc(N(C(=O)c2snc(C(N)=O)c2N)C(C(=O)NCC2CCCO2)c2c[nH]c3ccccc23)c1` (stereo not given), the concentration at half-maximal activity (AC50) under setting [1] is 3.16 µM [falling, partial curve, poor fit].
For `Cc1ccc(OCCSc2ncnc3nc[nH]c23)cc1`, the AC50 under setting [1] is 6.51 µM [rising, full curve, poor fit].
Take `C=CCn1c(C)cc(C(=O)CN2NS(=O)(=O)c3ccccc3C2=O)c1C`: the concentration at half-maximal activity (AC50) by setting is: under setting [1], 17.8 µM [rising, single point]; under setting [2], 25.1 µM [falling, single point].
For `COc1cccc(-c2nnc(NC(=O)C(C)C)o2)c1`, the AC50 under setting [1] was 29.1 µM [falling, single point].
Same read-out and setting: the result for `Cc1ccc(OCC(=O)Nn2c(C)nc3ccccc3c2=O)c(C(C)C)c1` reads 11.2 µM [falling, partial curve, poor fit]; that for `O=C(CSc1nncs1)Nc1nnc(-c2ccccc2)o1`, 20 µM [falling, partial curve, poor fit]; that for `CCN(CC)S(=O)(=O)c1ccc(N2CCN(S(=O)(=O)c3ccc4c(c3)OCCO4)CC2)nc1`, 1.84 µM [falling, partial curve, poor fit].
`Cc1ccc(C(=O)C(C)OC(=O)c2cc3cc([N+](=O)[O-])ccc3oc2=O)cc1` (stereo not given): under setting [1], the AC50 is 6.51 µM [rising, single point].
Regarding `C[C@@H]1CN(C(=O)c2nc3ccc(Cl)cn3c2CN2CCc3sccc3C2)C[C@H](C)O1`, the concentration at half-maximal activity (AC50) under setting [1] is 0.1 µM [rising, full curve, poor fit].
With `CCCS(=O)(=O)c1c(S(=O)(=O)CCC)c2c(N)cccn2c1C(=O)c1ccc(OC)cc1`, the AC50 under setting [1] was 17.8 µM [falling, single point].
In the case of `CC[C@@H]1Cc2cc(O)ccc2C2=C1c1ccc(O)cc1C[C@H]2CC`, the AC50 is, setting by setting: under setting [1], 3.66 µM [rising, partial curve, poor fit]; under setting [2], 3.66 µM [falling, partial curve, poor fit].
Turning to `Clc1ccc(Nc2ccc(Cl)nn2)cc1`, the AC50 under setting [1] was 35.5 µM [rising, single point].
Same read-out and setting: with `CCn1c(=O)c(C(=O)Nc2ccccc2)c(O)c2ccccc21` the figure was 0.398 µM [falling, full curve, poor fit].
Regarding `COc1cc(OC)cc(C(=O)O/N=C(\N)c2ccccn2)c1`, the half-maximal activity concentration (AC50) under setting [1] was 15.8 µM [falling, partial curve].
Same read-out and setting: with `COc1cc(C#Cc2c(-c3cncn3C)n(C)c3ccc(-c4ccc(CN5CCOCC5)cc4)cc23)cc(OC)c1` the figure was 0.731 µM [rising, full curve, poor fit]; with `CSc1ccccc1NC(=O)CSc1n[nH]c(C)c1[N+](=O)[O-]`, 12.6 µM [falling, partial curve]; with `Cn1c(/C=C/N(Cc2ccccc2)c2ccccc2)c([N+](=O)[O-])c(=O)n(C)c1=O`, 20 µM [rising, single point].
Turning to `COc1ccccc1NC(=O)CN1CCN(Cc2ccccc2)CC1`, the AC50 under setting [1] is 6.51 µM [rising, partial curve, poor fit].
On the same count and under the same terms, the result for `COc1ccc(OC)c(CN2CCN(C(=O)CNC(=O)c3ccc(C(C)(C)C)cc3)CC2)c1` reads 6.51 µM [falling, partial curve, poor fit]; that for `COCCn1c(SCC(=O)N2CCCCC2)nc2ccccc2c1=O`, 3.16 µM [falling, partial curve, poor fit]; that for `O=C(Nc1ccccc1C(=O)N/N=C/c1ccco1)c1ccc(F)cc1`, 18.4 µM [falling, partial curve].
With `O=C1NC(=S)/C(=C\c2ccc(-c3ccccc3Cl)o2)S1`, the AC50 under setting [1] is 0.164 µM [rising, full curve, poor fit].
Still for that read-out and setting: with `COc1ccccc1CNc1ncnc2c1cnn2-c1ccc(C)cc1` the figure was 10 µM [falling, partial curve, poor fit]; with `CCCn1c(-c2cccc([N+](=O)[O-])c2)nc2c1c(=O)[nH]c(=O)n2Cc1ccccc1`, 10.3 µM [rising, partial curve, poor fit]; with `CCCC1CC(CSC(=N)N)OC1=O` (stereo not given), 18.4 µM [falling, single point].
On the same count and under the same terms, with `O=C(CCc1nnc2ccc(N3CCCC3)nn12)Nc1ccc(F)cc1F` the figure was 6.31 µM [falling, single point].

The values are drawn from PubChem BioAssay AID493014 (National Center for Advancing Translational Sciences (NCATS), 2011).
